# According to patent US20250263416A1, “SPPL2a INHIBITORS” (Incyte Corporation, priority 2024, published 2025):
# At least one structure is not confirmed: it was looked up by name or label, or the drawing left a doubt.
# System: Collagen-Induced Arthritis (CIA) mouse model
# Assay: Collagen-induced arthritis (CIA) mouse model
# Type: in vivo, DBA-1 mice
# Conditions: 10 mg/kg, compared to the vehicle
# Source text: Female DBA-1 mice (8-9 weeks old) were used in the CIA mouse model. This model is widely used to evaluate efficacy of immunomodulatory drugs on autoimmune diseases, such as arthritis. DBA/1 mice develop collagen-induced arthritis (CIA) after immunization with bovine type II collagen emulsified in complete Freund's adjuvant (CFA), followed by a booster dose 21 days later. Both the immunizations were given subcutaneously, approximately 25 mm from the base of the tail on opposite sides. Immunizations were performed under a short duration isoflurane anesthesia. Mice were evaluated for the disease progression up to 45 days. […] Statistical significance was determined using Two-way ANOVA with multiple comparison tests to compare all groups to the vehicle.
smiles,measurement,value
"C[C@@H]1C[C@H]2[C@@H]3CCC4=CC(=O)C=C[C@]4(C)[C@@]3(F)[C@@H](O)C[C@]2(C)[C@@]1(O)C(=O)CO [dexamethasone, reference compound]",CIA score,significant reduction
